# Screening data, single-dose tests

From ChEMBL document CHEMBL3988442, “University of Dundee, Small-Polar-MMV Screening Library” (2021).

Results are given as percent effect. The record does not define 0% and 100%; most values in the screen are far below 50% and negative numbers occur (in some assays of this library far below -100). Compounds were drawn at random from those tested, without regard to their results.

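Whole-cell growth test on Mycobacterium tuberculosis, read after 4 days in a medium based on cholesterol and the lipid DPPC; the read-out is not stated. Compounds at 500 µM. Direction is inferred from retests: higher values go with more growth inhibition. Size under these conditions: about 18,000 compounds, about 900 of them at 50% or above in at least one test.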

| Compound | Percent Effect |
|---|---|
| `Cc1cc(NC(=O)c2cccc(N(C)C)c2)c[nH]c1=O` | -23.83 |
| `COCC(C)NC(=O)c1cnn(C)c1` (centres unmarked) | 35.43 |
| `CCCSc1ccc(NC(=O)NCCN)cc1` | 62.7 |
| `Cc1cc(CNS(=O)(=O)N(C)C)ccc1F` | 11.06 |
| `Cc1oncc1CN1C[C@@H](F)C[C@H]1CN` | 4.554 |
| `COc1ccc2c(c1)[C@@H](N)CCC2` | 3.692 |
| `OCC(Nc1ncccc1Br)c1ccccc1` (centres unmarked) | 61.42 |
| `COCCNC(=O)c1ccc2c(c1)OCCCO2` | 19.26 |
| `O=C(NCc1ncc[nH]1)Nc1cccc(F)c1` | 9.218 |
| `Cc1ccc(OCC(=O)NC2CCS(=O)(=O)C2)c(Br)c1` (centres unmarked) | -1.3 |
| `CCCOc1cccc(NCCCS(C)(=O)=O)c1` | 38.74 |
| `N#Cc1ccc(NCC(=O)Nc2ncccc2O)cc1` | 2.586 |
| `Cn1nc(C(=O)Nc2nc(CC(N)=O)cs2)ccc1=O` | 6.916 |
| `O=C1NCCC1C1(O)CCOCC1` (centres unmarked) | -1.022 |
| `CCc1cnc(N2CCNCC2)s1` | -3.469 |
| `CN(C)Cc1ccccc1CN(C)Cc1ncc[nH]1` | -5.417 |
| `O=S1(=O)CCCN(CCSc2ccccc2)CC1` | 11.82 |
| `OC1CCc2[nH]ncc2C1` (centres unmarked) | -13.33 |
| `Cc1cc(C(=O)NCC(F)F)c2c(C)nn(C)c2n1` | -31.67 |
| `COCCN1CCNCC1=O` | -10.96 |
| `c1nc2c(c(N3CCOCC3)n1)CCC2` | 13.04 |
| `CCc1cccc(C)c1NC(=O)CN1CCNC(=O)C1` | 7.138 |
| `O=C(Cn1cccnc1=O)NCCCOC1CCCC1` | -5.604 |
| `O=S1(=O)CCC(CNc2ccnc3cc(F)ccc23)C1` (centres unmarked) | -27.34 |
| `c1cc(OC2CCNCC2)ccn1` | 0.1332 |
| `Cc1cnccc1NCCNC(=O)[C@H]1CCC[C@H](O)C1` | -4.511 |
| `CCCC(=O)NC1CC(=O)N(c2cccc(OC)c2)C1` (centres unmarked) | 19.45 |
| `c1cc2c(cn1)NCCCN2` | 6.84 |
| `CN1CCCN(C(=O)COc2ccccc2)CC1` | 4.241 |
| `O=C1CC(C2CCNCC2)CN1` (centres unmarked) | -0.7487 |
| `Cc1ncsc1CCCNC(=O)CNC(=O)N(C)C` | 3.774 |
| `Cc1cc(S(=O)(=O)NC2CCS(=O)(=O)C2)c(C)s1` (centres unmarked) | 17.1 |
| `N[C@H]1CN(S(=O)(=O)c2cccc(F)c2)C[C@@H]1C1CC1` | 10.69 |
| `COC[C@@H]1CN(CCCc2ccccc2)C[C@H]1C(N)=O` | 42.45 |
| `Cc1noc(C)c1CNC(=O)CCn1nnnc1C` | -4.716 |
| `CCCc1cc(C(=O)NCC2COCCO2)cs1` (centres unmarked) | 80.95 |
| `CCC(=O)NC1=NCCS1` | -14.82 |
| `COc1ccccc1CNc1ccc(C#N)cn1` | 65.99 |
| `Cc1cc(C)nc(N2CCC2)n1` | -2.207 |
| `NCc1ccc(N)nc1` | 5.584 |
| `CCn1cc(C(=O)OCCC2CCCO2)cn1` (centres unmarked) | 34.75 |
| `Cn1cc(I)c(=O)n(Cc2ccccn2)c1=O` | -3.669 |
| `CCN(CC)CCNC1=NS(=O)(=O)c2ccccc21` | 6.994 |
| `OCCc1cn(Cc2ccccc2)nn1` | -14.86 |
| `CC(=O)Nc1ccc(CNC(C)C(C)C)cc1` (centres unmarked) | 7.323 |
| `OCc1ncn(-c2ccccc2)n1` | -17.51 |
| `NCCc1cc(-c2ccncc2)[nH]n1` | -12.82 |
| `c1cn(C2CCNCC2)nn1` | 56.79 |
| `CCN1CCN(CC(O)COc2ccccc2)CC1` (centres unmarked) | -35.71 |
| `CC(O)(CC#N)c1ccccc1` (centres unmarked) | -0.2067 |
| `CC1(C(F)F)CNCCO1` (centres unmarked) | -12.08 |
| `CN(C(=O)Cc1c[nH]c(=O)[nH]c1=O)C1CCSCC1` | -13.87 |
| `CN(C(=O)COCC(F)(F)F)C1CCS(=O)(=O)C1` (centres unmarked) | -1.687 |
| `CC1=CC[C@@H]2CN(C(=O)CCn3nnnc3C)C[C@@H]2C1` | 9.246 |
| `CC(=O)Nc1ccc(C(C)N)cc1` (centres unmarked) | 5.536 |
| `CC(C)(C)OC(=O)Nc1ccc(NC(=O)C2CC2)cn1` | -3.017 |
| `NCc1cc(C(N)=O)co1` | -1.789 |
| `CCN1CCN(S(=O)(=O)c2cc(C)ccc2OC)CC1` | 16.47 |
| `CC(C)c1nc(CN(C)C(=O)CN2CCOC2=O)cs1` | -5.71 |

For reference, 4 entries once more:

Compound	Percent Effect
CN(C(=O)Cc1c[nH]c(=O)[nH]c1=O)C1CCSCC1	-13.87
COc1ccc2c(c1)[C@@H](N)CCC2	3.692
CCc1cccc(C)c1NC(=O)CN1CCNC(=O)C1	7.138
c1nc2c(c(N3CCOCC3)n1)CCC2	13.04